This note sets out measurements from the supplement of paper PMC10849652.

The chains behind the UniProt entries cited, without tags or fusion partners. Where a name states a change or a piece, a line headed by the entry shows the natural chain unless it says otherwise.
UniProt Q9NUB1: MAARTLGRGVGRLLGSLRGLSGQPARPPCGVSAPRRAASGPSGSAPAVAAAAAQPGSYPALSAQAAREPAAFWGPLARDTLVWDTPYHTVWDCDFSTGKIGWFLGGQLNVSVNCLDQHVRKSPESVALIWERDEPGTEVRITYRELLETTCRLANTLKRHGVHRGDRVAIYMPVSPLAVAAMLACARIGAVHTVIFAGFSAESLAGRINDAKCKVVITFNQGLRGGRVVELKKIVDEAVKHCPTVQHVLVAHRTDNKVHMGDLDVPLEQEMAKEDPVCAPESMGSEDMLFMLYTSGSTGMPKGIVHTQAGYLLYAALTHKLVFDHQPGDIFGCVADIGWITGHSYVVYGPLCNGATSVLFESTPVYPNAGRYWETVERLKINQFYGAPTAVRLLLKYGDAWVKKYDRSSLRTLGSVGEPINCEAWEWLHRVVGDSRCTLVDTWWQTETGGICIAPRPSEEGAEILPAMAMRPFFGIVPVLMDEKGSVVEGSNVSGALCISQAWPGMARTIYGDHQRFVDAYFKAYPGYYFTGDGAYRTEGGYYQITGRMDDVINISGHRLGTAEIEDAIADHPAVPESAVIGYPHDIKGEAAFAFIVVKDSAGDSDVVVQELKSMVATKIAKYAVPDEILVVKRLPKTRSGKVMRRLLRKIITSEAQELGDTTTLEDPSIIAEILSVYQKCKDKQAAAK
UniProt P01023, whole entry, looked up: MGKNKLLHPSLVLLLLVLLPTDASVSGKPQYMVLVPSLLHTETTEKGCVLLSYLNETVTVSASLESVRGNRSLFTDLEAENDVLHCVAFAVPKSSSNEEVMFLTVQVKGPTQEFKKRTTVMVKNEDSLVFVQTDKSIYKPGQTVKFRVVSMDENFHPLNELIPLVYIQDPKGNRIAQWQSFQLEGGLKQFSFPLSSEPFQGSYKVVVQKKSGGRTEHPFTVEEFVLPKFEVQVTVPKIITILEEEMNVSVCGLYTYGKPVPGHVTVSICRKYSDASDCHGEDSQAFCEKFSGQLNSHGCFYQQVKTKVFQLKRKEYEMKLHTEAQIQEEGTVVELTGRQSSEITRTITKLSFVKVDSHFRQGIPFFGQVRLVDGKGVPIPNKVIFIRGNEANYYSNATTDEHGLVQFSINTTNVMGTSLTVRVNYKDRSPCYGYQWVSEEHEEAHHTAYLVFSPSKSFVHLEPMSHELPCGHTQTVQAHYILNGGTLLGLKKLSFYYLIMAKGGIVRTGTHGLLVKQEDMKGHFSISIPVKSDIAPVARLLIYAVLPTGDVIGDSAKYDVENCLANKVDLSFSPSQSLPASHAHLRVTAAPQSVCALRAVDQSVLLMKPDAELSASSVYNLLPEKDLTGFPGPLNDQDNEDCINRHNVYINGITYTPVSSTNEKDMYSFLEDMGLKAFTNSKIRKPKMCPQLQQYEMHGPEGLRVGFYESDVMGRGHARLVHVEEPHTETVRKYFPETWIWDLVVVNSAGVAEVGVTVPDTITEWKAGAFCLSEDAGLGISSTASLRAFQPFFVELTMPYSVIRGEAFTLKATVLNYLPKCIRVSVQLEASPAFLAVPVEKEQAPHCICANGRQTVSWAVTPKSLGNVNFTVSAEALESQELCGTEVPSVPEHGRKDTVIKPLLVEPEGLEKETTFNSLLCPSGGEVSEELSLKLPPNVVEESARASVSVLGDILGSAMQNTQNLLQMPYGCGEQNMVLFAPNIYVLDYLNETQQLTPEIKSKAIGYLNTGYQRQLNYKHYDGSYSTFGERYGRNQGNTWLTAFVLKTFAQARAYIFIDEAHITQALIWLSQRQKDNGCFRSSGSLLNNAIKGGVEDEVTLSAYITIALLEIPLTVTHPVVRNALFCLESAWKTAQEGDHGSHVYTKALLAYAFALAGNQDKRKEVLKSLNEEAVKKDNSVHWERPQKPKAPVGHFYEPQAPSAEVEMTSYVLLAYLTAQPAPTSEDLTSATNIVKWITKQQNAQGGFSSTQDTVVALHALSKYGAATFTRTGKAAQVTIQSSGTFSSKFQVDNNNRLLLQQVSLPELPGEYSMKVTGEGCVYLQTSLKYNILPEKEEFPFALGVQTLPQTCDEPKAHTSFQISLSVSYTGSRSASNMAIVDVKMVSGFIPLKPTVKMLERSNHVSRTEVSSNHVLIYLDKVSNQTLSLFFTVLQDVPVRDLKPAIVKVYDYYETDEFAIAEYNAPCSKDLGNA
UniProt Q13443: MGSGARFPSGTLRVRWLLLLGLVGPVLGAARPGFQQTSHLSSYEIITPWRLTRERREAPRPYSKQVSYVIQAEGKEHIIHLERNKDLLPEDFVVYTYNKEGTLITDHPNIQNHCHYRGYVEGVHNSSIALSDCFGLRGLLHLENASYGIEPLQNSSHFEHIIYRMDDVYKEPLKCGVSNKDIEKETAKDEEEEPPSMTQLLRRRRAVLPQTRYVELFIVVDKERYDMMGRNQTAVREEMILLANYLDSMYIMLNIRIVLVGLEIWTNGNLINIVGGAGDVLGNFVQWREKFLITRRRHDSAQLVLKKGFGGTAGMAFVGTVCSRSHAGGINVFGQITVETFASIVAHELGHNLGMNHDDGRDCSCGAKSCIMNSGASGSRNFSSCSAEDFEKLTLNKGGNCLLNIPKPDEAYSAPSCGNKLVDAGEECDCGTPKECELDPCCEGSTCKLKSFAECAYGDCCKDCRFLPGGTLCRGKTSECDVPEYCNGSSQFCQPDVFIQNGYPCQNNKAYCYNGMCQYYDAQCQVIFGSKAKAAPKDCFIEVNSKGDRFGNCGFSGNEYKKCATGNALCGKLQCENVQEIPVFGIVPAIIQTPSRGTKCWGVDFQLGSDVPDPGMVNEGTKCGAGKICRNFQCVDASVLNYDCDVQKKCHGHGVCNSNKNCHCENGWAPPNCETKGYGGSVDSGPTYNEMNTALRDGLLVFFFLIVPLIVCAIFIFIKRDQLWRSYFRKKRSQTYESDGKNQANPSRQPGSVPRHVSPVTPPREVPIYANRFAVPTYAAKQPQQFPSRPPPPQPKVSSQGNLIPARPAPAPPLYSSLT
UniProt Q9BWD1: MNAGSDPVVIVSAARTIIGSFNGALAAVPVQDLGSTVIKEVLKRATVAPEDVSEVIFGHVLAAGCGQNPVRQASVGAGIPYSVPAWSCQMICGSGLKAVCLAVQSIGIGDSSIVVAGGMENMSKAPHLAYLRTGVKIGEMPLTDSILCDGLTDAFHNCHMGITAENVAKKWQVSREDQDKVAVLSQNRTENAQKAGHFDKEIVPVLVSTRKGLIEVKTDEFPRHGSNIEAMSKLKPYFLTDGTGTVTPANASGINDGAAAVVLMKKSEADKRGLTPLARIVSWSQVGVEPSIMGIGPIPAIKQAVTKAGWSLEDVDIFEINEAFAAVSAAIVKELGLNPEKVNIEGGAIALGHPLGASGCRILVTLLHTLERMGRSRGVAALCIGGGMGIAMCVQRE
UniProt P49588, whole entry, looked up: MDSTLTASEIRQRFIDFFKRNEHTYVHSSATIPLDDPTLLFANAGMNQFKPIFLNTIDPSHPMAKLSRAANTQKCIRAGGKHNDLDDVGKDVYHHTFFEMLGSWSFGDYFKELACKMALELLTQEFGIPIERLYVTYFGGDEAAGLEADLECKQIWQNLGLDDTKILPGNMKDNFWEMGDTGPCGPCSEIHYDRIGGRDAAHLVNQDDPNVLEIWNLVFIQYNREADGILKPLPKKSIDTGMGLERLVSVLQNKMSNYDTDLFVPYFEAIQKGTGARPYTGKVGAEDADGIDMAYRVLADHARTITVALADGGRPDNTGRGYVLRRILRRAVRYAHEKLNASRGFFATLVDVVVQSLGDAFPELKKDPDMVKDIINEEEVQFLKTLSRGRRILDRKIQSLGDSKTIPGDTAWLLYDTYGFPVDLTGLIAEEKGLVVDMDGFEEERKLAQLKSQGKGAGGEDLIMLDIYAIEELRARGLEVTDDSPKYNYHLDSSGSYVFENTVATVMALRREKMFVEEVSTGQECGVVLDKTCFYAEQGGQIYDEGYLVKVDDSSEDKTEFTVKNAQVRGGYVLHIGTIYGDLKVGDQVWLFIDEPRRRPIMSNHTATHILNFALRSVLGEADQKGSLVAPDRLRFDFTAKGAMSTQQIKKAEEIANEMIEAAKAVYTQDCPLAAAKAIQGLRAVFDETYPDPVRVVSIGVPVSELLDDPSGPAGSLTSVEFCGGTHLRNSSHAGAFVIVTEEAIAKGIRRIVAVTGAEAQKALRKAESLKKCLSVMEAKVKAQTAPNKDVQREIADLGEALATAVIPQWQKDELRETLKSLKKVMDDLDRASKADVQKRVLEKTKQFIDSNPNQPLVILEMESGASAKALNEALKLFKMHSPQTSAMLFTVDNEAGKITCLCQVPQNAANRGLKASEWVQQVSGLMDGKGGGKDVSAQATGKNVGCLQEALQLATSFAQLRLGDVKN
UniProt P33121: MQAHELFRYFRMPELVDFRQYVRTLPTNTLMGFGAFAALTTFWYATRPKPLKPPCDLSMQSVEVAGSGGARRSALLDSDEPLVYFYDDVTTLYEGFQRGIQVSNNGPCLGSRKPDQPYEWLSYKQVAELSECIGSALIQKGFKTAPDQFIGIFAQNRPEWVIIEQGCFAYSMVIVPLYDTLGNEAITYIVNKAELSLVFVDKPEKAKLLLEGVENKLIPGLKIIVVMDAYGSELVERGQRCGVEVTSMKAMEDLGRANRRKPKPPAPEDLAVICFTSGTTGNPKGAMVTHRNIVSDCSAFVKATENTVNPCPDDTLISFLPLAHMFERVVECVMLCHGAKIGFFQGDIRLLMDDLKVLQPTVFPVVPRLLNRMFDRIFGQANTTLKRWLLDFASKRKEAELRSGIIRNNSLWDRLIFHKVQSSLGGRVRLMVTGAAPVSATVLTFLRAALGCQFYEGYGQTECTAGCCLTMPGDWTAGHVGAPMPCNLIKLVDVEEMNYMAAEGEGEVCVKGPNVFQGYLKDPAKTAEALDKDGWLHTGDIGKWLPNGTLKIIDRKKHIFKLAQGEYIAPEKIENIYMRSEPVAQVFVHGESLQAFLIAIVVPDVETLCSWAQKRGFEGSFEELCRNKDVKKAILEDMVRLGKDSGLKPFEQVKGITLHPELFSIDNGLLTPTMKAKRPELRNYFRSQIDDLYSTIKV
UniProt P33527: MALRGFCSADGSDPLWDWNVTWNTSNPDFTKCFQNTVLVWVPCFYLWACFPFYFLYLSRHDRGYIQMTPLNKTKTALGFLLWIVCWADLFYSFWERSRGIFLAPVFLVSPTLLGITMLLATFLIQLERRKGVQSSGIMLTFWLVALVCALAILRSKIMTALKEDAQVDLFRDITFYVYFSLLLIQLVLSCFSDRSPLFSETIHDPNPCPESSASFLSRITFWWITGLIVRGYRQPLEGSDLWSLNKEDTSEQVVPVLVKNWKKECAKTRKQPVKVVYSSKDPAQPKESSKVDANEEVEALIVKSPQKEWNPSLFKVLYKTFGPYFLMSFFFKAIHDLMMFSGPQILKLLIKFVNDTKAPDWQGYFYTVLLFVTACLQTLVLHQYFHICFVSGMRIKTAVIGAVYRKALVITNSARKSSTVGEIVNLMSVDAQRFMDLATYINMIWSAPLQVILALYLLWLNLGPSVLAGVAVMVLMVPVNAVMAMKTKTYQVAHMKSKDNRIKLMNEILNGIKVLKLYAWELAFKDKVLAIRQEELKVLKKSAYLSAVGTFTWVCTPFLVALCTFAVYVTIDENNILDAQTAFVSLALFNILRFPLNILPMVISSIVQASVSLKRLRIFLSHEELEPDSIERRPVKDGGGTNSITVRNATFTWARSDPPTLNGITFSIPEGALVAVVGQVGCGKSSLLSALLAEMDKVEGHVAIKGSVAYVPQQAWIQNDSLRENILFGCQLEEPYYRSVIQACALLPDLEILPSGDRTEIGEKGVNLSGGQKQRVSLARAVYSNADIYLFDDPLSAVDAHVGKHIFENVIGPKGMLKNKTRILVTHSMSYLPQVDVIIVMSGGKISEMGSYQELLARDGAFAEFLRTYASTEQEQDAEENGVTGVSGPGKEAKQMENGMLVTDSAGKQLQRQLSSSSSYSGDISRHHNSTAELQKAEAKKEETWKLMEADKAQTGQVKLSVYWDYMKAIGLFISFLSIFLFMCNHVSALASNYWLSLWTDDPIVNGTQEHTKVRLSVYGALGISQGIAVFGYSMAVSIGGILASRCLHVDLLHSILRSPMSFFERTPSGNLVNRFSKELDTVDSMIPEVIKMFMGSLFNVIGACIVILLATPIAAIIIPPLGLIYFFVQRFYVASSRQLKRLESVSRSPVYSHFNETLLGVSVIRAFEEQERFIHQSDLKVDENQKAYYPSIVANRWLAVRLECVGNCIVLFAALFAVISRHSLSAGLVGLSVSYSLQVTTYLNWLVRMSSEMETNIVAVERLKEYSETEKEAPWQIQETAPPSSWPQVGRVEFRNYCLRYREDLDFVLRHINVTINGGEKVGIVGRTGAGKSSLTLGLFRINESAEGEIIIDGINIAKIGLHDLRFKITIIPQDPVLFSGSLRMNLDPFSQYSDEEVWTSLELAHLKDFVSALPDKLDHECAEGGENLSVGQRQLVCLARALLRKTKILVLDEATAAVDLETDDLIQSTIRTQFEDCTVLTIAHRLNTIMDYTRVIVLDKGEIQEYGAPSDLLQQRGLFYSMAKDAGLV

The list shows a part of the results.

Compound in one assay: Cc1nc(Nc2n[nH]c3c2CN(C(=O)N[C@H](CN(C)C)c2ccccc2)C3(C)C)c2sccc2n1
Description: log2 fold change, soluble protein after heating vs DMSO (PISA); higher = thermal stabilisation; K562 cells, 10 uM, 30 min; active = over 0.2 and 3.5 SD of the protein, either way, in both replicates (recomputed). In a few lines:
(§1)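 Aliquots of K562 cells (2×10^6 cells/mL) treated with 10 μM compound for 30 min were heated for 3 min over 48°C-58°C. After pooling and extraction in PBS with 0.5% NP-40 at 4°C, soluble protein from a 21,000xg, 90 min spin was quantified by TMTpro 16plex LC-MS/MS with channel sums equalised. Thermal stability is expressed against control samples, from duplicates, as a log2 fold change.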
With ACTR2 (UniProt P61160), the log2 fold change is inactive: -0.008.

With ACBD6 (UniProt Q9BR61), the log2 fold change is inactive: -0.085.

Turning to ACTR10 (UniProt Q9NZ32), the log2 fold change was inactive: -0.011.

Consider ACSS1 (UniProt Q9NUB1), for which the log2 fold change is inactive: 0.013.

Consider A2M (UniProt P01023), for which the log2 fold change was inactive: 0.08.

As to ACAD8 (UniProt Q9UKU7), the log2 fold change was inactive: -0.064.

For ACTR6 (UniProt Q9GZN1), the log2 fold change is inactive: -0.005.

Turning to ABLIM1 (UniProt O14639), the log2 fold change is inactive: -0.089.

As to ACP2 (UniProt P11117), the log2 fold change is inactive: -0.006.

Regarding ABCB10 (UniProt Q9NRK6), the log2 fold change was inactive: 0.

As for ABCB8 (UniProt Q9NUT2), the log2 fold change was inactive: -0.007.

Turning to ADAM10 (UniProt O14672), the log2 fold change was inactive: 0.003.

As for ADAT2 (UniProt Q7Z6V5), the log2 fold change was inactive: -0.015.

In the case of ACOT7 isoform 7 (UniProt O00154), the log2 fold change is inactive: 0.005.

For ACADSB (UniProt P45954), the log2 fold change is inactive: 0.109.

Consider ADAM9 (UniProt Q13443), for which the log2 fold change is inactive: -0.054.

Turning to ABCE1 (UniProt P61221), the log2 fold change is inactive: 0.027.

Consider ACAT2 (UniProt Q9BWD1), for which the log2 fold change is inactive: 0.006.

In the case of ACOT8 (UniProt O14734), the log2 fold change was inactive: -0.003.

Turning to ACIN1 (UniProt Q9UKV3), the log2 fold change is active: -0.444.

Turning to ADAR isoform 4 (UniProt P55265), the log2 fold change was inactive: 0.128.

Consider AARS (UniProt P49588), for which the log2 fold change is inactive: 0.008.

With ACTN4 (UniProt O43707), the log2 fold change is inactive: 0.003.

For ACBD3 (UniProt Q9H3P7), the log2 fold change is inactive: -0.011.

Consider ACTR3 (UniProt P61158), for which the log2 fold change is inactive: 0.019.

Turning to ACSL1 (UniProt P33121), the log2 fold change was inactive: -0.07.

Consider ABHD17A isoform 2 (UniProt Q96GS6), for which the log2 fold change was inactive: 0.047.

AAMP (UniProt Q13685): the log2 fold change was inactive: 0.005.

In the case of ACLY (UniProt P53396), the log2 fold change was inactive: 0.002.

On to AAMDC (UniProt Q9H7C9), for which the log2 fold change was inactive: 0.009.

Take ACTR1A (UniProt P61163): the log2 fold change is inactive: -0.004.

For the target ACAD9 (UniProt Q9H845), the log2 fold change is inactive: 0.021.

Regarding ABHD14B (UniProt Q96IU4), the log2 fold change was inactive: -0.016.

For ACAA2 (UniProt P42765), the log2 fold change was inactive: 0.007.

For the target ABCC1 (UniProt P33527), the log2 fold change is inactive: 0.009.

For the target ACSL5 isoform 3 (UniProt Q9ULC5), the log2 fold change is inactive: -0.06.

In the case of ACADM isoform 2 (UniProt P11310), the log2 fold change was inactive: 0.025.

Compound in a further assay: Cc1nc(Nc2ncc(C(=O)Nc3c(C)cccc3Cl)s2)cc(N2CCN(CCO)CC2)n1 [dasatinib]
The description is as above. The gist of the method:
as §1
Regarding ACTR2 (UniProt P61160), the log2 fold change was inactive: 0.082.

As for ACBD6 (UniProt Q9BR61), the log2 fold change is inactive: -0.23.

In the case of ACTR10 (UniProt Q9NZ32), the log2 fold change was inactive: -0.018.

With ACSS1 (UniProt Q9NUB1), the log2 fold change is inactive: -0.012.

Turning to A2M (UniProt P01023), the log2 fold change is inactive: 0.084.

Regarding ACAD8 (UniProt Q9UKU7), the log2 fold change was inactive: 0.02.

Regarding ACTR6 (UniProt Q9GZN1), the log2 fold change was inactive: 0.004.

ABLIM1 (UniProt O14639): the log2 fold change is inactive: -0.117.

As to ACP2 (UniProt P11117), the log2 fold change was inactive: 0.

For ABCB10 (UniProt Q9NRK6), the log2 fold change is inactive: 0.01.

As to ABCB8 (UniProt Q9NUT2), the log2 fold change is inactive: -0.06.

For the target ADAM10 (UniProt O14672), the log2 fold change was inactive: -0.037.

Take ADAT2 (UniProt Q7Z6V5): the log2 fold change is inactive: -0.046.

As for ACOT7 isoform 7 (UniProt O00154), the log2 fold change was inactive: 0.032.

For the target ACADSB (UniProt P45954), the log2 fold change was inactive: -0.128.

For ADAM9 (UniProt Q13443), the log2 fold change was inactive: 0.011.

Take ABCE1 (UniProt P61221): the log2 fold change was inactive: 0.043.

Turning to ACAT2 (UniProt Q9BWD1), the log2 fold change was inactive: 0.048.

Turning to ACOT8 (UniProt O14734), the log2 fold change is inactive: 0.053.

On to ACIN1 (UniProt Q9UKV3), for which the log2 fold change is inactive: 0.016.

In the case of ADAR isoform 4 (UniProt P55265), the log2 fold change was inactive: -0.012.

Take AARS (UniProt P49588): the log2 fold change was inactive: -0.006.

For ACTN4 (UniProt O43707), the log2 fold change is inactive: 0.058.

Consider ACBD3 (UniProt Q9H3P7), for which the log2 fold change is inactive: -0.053.

As for ACTR3 (UniProt P61158), the log2 fold change was inactive: 0.071.

Regarding ACSL1 (UniProt P33121), the log2 fold change was inactive: -0.076.

Turning to ABHD17A isoform 2 (UniProt Q96GS6), the log2 fold change is inactive: -0.023.

AAMP (UniProt Q13685): the log2 fold change is inactive: 0.04.

Consider ACLY (UniProt P53396), for which the log2 fold change was inactive: -0.037.

Turning to AAMDC (UniProt Q9H7C9), the log2 fold change was inactive: 0.056.

On to ACTR1A (UniProt P61163), for which the log2 fold change is inactive: -0.027.

Regarding ACAD9 (UniProt Q9H845), the log2 fold change is inactive: 0.125.

For the target ABHD14B (UniProt Q96IU4), the log2 fold change is inactive: -0.027.

As for ACAA2 (UniProt P42765), the log2 fold change was inactive: 0.048.

Consider ABCC1 (UniProt P33527), for which the log2 fold change is inactive: 0.008.

In the case of ACSL5 isoform 3 (UniProt Q9ULC5), the log2 fold change is inactive: 0.062.

Turning to ACADM isoform 2 (UniProt P11310), the log2 fold change was inactive: -0.054.
